Laboratory results taken from patent US8119159B2, “Solid oral dosage form containing an enhancer” (Merrion Research III Limited, priority 1999, dated 2012).

Columns and labels:
[1] = humans, intrajejunal bolus solution with sodium caprate
[2] = oral, with coffee or orange juice; cited from earlier work
[3] = humans, aqueous intrajejunal infusion over 25 minutes with sodium caprate

NCCCC(O)(P(=O)(O)O)P(=O)(O)O [alendronate]
gastrointestinal absorption of alendronate compared to Fosamax reference tablet [1]: significantly enhanced
impairment of absorption by coffee or orange juice [2]: ≥ 60%
systemic absorption of alendronate [3]: considerably enhanced
